Publication PMC8419995, “In vitro and in vivo efficacy of thiacloprid against Echinococcus multilocularis” (Parasites & Vectors, 2021)

Test: Blood cell analysis of mice infected with E. multilocularis
Assay type: in vivo
Conditions: infected BALB/c mice, 6 weeks

SMILES | Eos (ABZ 100 mg/kg/day orally) [%] | HGB (ABZ 100 mg/kg/day orally) [g/L] | Lym (ABZ 100 mg/kg/day orally) [%] | Neu (ABZ 100 mg/kg/day orally) [%] | RBC (ABZ 100 mg/kg/day orally) | WBC (ABZ 100 mg/kg/day orally) | Eos (Thia 15 (15 mg/kg/day orally)) [%] | HGB (Thia 15 (15 mg/kg/day orally)) [g/L] | Lym (Thia 15 (15 mg/kg/day orally)) [%] | Neu (Thia 15 (15 mg/kg/day orally)) [%] | RBC (Thia 15 (15 mg/kg/day orally)) | WBC (Thia 15 (15 mg/kg/day orally)) | Eos (Thia 30 (30 mg/kg/day orally)) [%] | HGB (Thia 30 (30 mg/kg/day orally)) [g/L] | Lym (Thia 30 (30 mg/kg/day orally)) [%] | Neu (Thia 30 (30 mg/kg/day orally)) [%] | RBC (Thia 30 (30 mg/kg/day orally)) | WBC (Thia 30 (30 mg/kg/day orally))
CCCSc1ccc2nc(NC(=O)OC)[nH]c2c1 [ABZ, albendazole] | 1.71±0.59 | 203.50 ± 19.66 | 22.49±6.83 | 73.19±8.66 | 9.60±1.12 1012/L | 27.84±4.27* 109/L |  |  |  |  |  |  |  |  |  |  |  | 
N#C/N=C1\SCCN1Cc1ccc(Cl)nc1 [thiacloprid] |  |  |  |  |  |  | 4.37±1.32 | 196.50 ± 11.93 | 41.27±10.25 | 47.43±12.25 | 9.22±0.60 1012/L | 25.10±3.86* 109/L | 2.45±0.71 | 190.8 ± 35.86 | 50.38±15.14 | 49.52±7.23 | 8.71±1.50 1012/L | 27.60±3.10* 109/L

Marks after values point to notes of the source that are not given here.
